Results deposited as PubChem BioAssay AID1259424 (University of Nebraska Medical Center, 2018).
The deposit covers about 14,000 reagents; below is an unselected part. 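Higher correlation or smaller distance means closer resemblance to KSR1 loss; control wells, including KSR1 knockdowns, recur on many plates.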 Reagents against one gene are numbered here. The record does not give: the time to read-out.

Screen: 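Seek colon cancer survival genes behaving like KSR1, using a six-gene signature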 (primary screen)
Cells: human HCT116 colon cancer cells
Knock-down reagent: siRNA pool against human genes, 50 nM
Detection: 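Six signature mRNAs by branched-DNA multiplex assay, scaled to two housekeeping genes and non-targeting median, log2; matched to mean KSR1 knockdown profile by Pearson correlation and euclidean distance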
Scale: mean correlation with KSR1 profile and KSR1 correlation: higher = expression change more like KSR1 knockdown; mean distance from KSR1 profile: higher = expression change less like KSR1 knockdown

no.	gene	reagent no.	mean correlation with KSR1 profile	mean distance from KSR1 profile	KSR1 correlation, replicate 1	KSR1 correlation, replicate 2	KSR1 correlation, replicate 3
1	TIMM17B	1	0.32	2.01	0.259	0.318	0.406
2	TTLL3	1	0.228	3.57	0.54	0.166	-0.171
3	CNDP1	1	0.66	1.34	0.452	0.726	0.598
4	RBMXL2	1	0.889	0.351	0.445	0.777	0.588
5	PLLP	1	-0.802	3.83	-0.49	-0.531	-0.804
6	BRF1	1	-0.146	3.96	-0.238	-0.155	-0.0949
7	LRRC8B	1	-0.711	2.3	-0.772	-0.325	-0.794
8	EEFSEC	1	-0.555	2.44	-0.641	-0.424	-0.548
9	METTL16	1	-0.385	1.18	-0.183	-0.847	-0.561
10	AICDA	1	0.525	1.7	0.5	0.425	0.515
11	MIER3	1	0.0366	1.37	-0.238	-0.314	-0.0276
12	SPRY1	1	-0.408	4.1	-0.388	-0.456	-0.269
13	MT1E	1	-0.55	2.09	-0.496	-0.557	-0.657
14	RNF13	1	0.338	1.45	0.421	0.389	0.0134
15	MNS1	1	0.339	3.04	0.206	0.0914	0.461
16	TGFA	1	-0.606	1.86	-0.592	-0.371	-0.721
17	RECQL	1	-0.0872	1.72	-0.000293	-0.0471	0.073
18	EXTL3	1	0.542	1.41	0.809	0.751	0.446
19	PCSK7	1	0.218	2.1	0.194	0.27	0.175
20	KCND2	1	-0.433	2.04	-0.424	-0.589	-0.387
21	CD55	1	-0.338	1.49	-0.318	-0.432	-0.409
22	CUX1	1	0.000135	1.93	0.0763	0.0243	-0.0306
23	TCP10L	1	-0.697	2.92	-0.512	-0.236	-0.558
24	ERO1B	1	0.674	1.28	0.653	0.634	0.468
25	FGF3	1	-0.232	1.81	-0.288	-0.263	-0.0973
26	RFNG	1	-0.0709	1.16	-0.175	0.254	0.262
27	SPIRE1	1	0.783	1.57	0.623	0.814	0.544
28	XG	1	0.287	1.55	-0.0714	-0.00594	0.407
29	RBM14	1	-0.759	2.67	-0.826	-0.638	-0.573
30	RBM14	2	0.578	3.27	0.501	0.499	0.618
31	TGIF2	1	0.117	2.22	0.0417	-0.206	0.232
32	ZNF556	1	0.731	1.27	0.619	0.406	0.653
33	NKIRAS2	1	0.0129	2.14	0.0663	0.189	-0.657
34	NGDN	1	-0.382	2.72	-0.374	-0.337	-0.0741
